Data source: PubChem BioAssay AID504764 (Drosophila RNAi Screening Center, 2011)
The deposit covers about 22,000 reagents; shown is a random part of those that have a named target and a result. In the full data, 403 (1.9%) are marked active. 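Unnormalised raw counts per well; ratio z-scores behind the hit calls and whether each hit raises or lowers signal are not deposited.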 The numbers tell different reagents against one gene apart. Names joined by + are all predicted targets of the reagent. The record does not give: the amount of reagent.

Screen: 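Knock-downs that raise or lower a Notch target reporter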 (primary screen)
Cells: Drosophila Kc167 cells
Knock-down reagent: long dsRNA against Drosophila genes
Timing: about 5 days (4 days dsRNA, then 24 h after transfection)
Conditions: transfection of constitutively active membrane-tethered Notch lacking the extracellular domain, read 24 h later
Read-out: 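Firefly luciferase from an E(spl)m3 reporter with active Notch, plus control-promoter and uninduced reporter wells for normalisation; unnormalised counts, duplicate wells a and b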
Scale: induced reporter light, run 1, well a and induced reporter light, run 1, well b: higher = more light from the Notch target reporter with active Notch; control promoter light, run 1, well a and control promoter light, run 1, well b: higher = more light from the viral control promoter (cell number, transfection, viability); uninduced reporter light, run 1, well a: higher = more light from the Notch target reporter without active Notch
Hit rule: 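Wells with low control signal or poorly matching duplicates excluded; duplicates averaged; per source plate, z beyond ±2 for induced/control log2 ratio or beyond ±1.8 for induced/uninduced marks a hit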
Meaning of the calls: active = modifier hit (raised or lowered Notch signal); inactive = not a hit

gene	dsRNA no.	induced reporter light, run 1, well a	induced reporter light, run 1, well b	control promoter light, run 1, well a	control promoter light, run 1, well b	uninduced reporter light, run 1, well a	outcome
Cnx99A + Cnx14D	1	1.28e5	1.27e5	2.06e5	2.15e5	10835	inactive
az2 (GeneID 35682)	1	1.91e5	1.94e5	1.79e5	2.00e5	15820	inactive
CG34282 (GeneID 42248)	1	2.14e5	1.77e5	1.74e5	1.78e5	15700	inactive
CG33702 (GeneID 3771932)	1	1.74e5	1.92e5	1.87e5	2.24e5	13595	inactive
CG13135 (GeneID 34345)	1	1.07e5	1.21e5	72625	1.11e5	14400	inactive
Arglu1 (GeneID 34320)	1	1.34e5	1.58e5	66845	61345	20055	inactive
CG13198 (GeneID 36245)	1	1.01e5	1.11e5	1.70e5	1.34e5	10985	inactive
CG2765 (GeneID 37994)	1	1.90e5	1.72e5	1.66e5	1.77e5	13135	inactive
can (GeneID 45432)	1	1.63e5	1.66e5	2.31e5	1.89e5	11610	inactive
Ldh (GeneID 45880)	1	1.98e5	2.08e5	1.93e5	1.64e5	8750	inactive
Dhc93AB (GeneID 42485)	1	1.83e5	1.69e5	1.89e5	2.15e5	14970	inactive
Rab7 (GeneID 42841)	1	1.66e5	1.72e5	1.93e5	1.93e5	14960	inactive
CG2003 (GeneID 43761)	1	97360	1.15e5	1.58e5	1.74e5	8770	inactive
CG17472 (GeneID 35320)	1	44595	28960	43615	26815	1090	inactive
Arl5 (GeneID 38931)	1	1.12e5	1.07e5	97905	26075	10350	inactive
Pus10 (GeneID 33178)	1	1.96e5	2.01e5	2.43e5	2.80e5	18810	inactive
wg (GeneID 34009)	1	1.57e5	1.29e5	1.85e5	1.56e5	10125	inactive
lectin-30A (GeneID 53541)	1	1.07e5	1.26e5	68780	1.07e5	16725	inactive
CG34430 (GeneID 5740489)	1	2.08e5	1.95e5	2.35e5	2.45e5	17535	inactive
Snx17 (GeneID 34354)	1	1.85e5	1.73e5	1.99e5	1.78e5	12950	inactive
VhaM9.7-c (GeneID 38503)	1	1.18e5	1.20e5	95325	33850	9900	inactive
CG8915 (GeneID 32715)	1	1.10e5	1.05e5	92385	44170	8650	inactive
CG11378 (GeneID 31060)	1	89310	1.06e5	1.64e5	1.37e5	8185	inactive
Cpr57A + Obp57d	1	84110	91915	1.68e5	2.02e5	9030	inactive
Cyp6a9 (GeneID 36663)	1	1.01e5	97785	1.35e5	1.27e5	8210	inactive
Cad74A (GeneID 39936)	1	1.80e5	1.44e5	2.29e5	2.17e5	6220	inactive
OtopLb (GeneID 33539)	1	1.75e5	1.57e5	1.10e5	1.33e5	15675	active
CG14414 (GeneID 32394)	1	1.21e5	1.05e5	96405	1.28e5	13240	inactive
fd3F (retired record) + Crg-1	1	49030	57390	72530	79125	5655	inactive
toy (GeneID 43833)	1	1.74e5	1.79e5	2.51e5	2.72e5	14380	inactive
Remo (GeneID 2768909)	1	1.17e5	1.02e5	1.62e5	1.45e5	8120	inactive
CG18294 + 825-Oak + CG32214 + 2 more	1						inactive
CG17782 (GeneID 42912)	1	1.71e5	1.54e5	1.86e5	1.98e5	13715	inactive
CG15201 (GeneID 32053)	1	1.54e5	1.51e5	2.59e5	2.88e5	10910	inactive
SelR (GeneID 41309)	1	50095	64300	46055	44350	2550	inactive

Quoted from above for reference:
gene	dsRNA no.	induced reporter light, run 1, well a	induced reporter light, run 1, well b	control promoter light, run 1, well a	control promoter light, run 1, well b	uninduced reporter light, run 1, well a	outcome
CG11378 (GeneID 31060)	1	89310	1.06e5	1.64e5	1.37e5	8185	inactive
Cpr57A + Obp57d	1	84110	91915	1.68e5	2.02e5	9030	inactive
Cyp6a9 (GeneID 36663)	1	1.01e5	97785	1.35e5	1.27e5	8210	inactive
Cad74A (GeneID 39936)	1	1.80e5	1.44e5	2.29e5	2.17e5	6220	inactive
OtopLb (GeneID 33539)	1	1.75e5	1.57e5	1.10e5	1.33e5	15675	active
CG14414 (GeneID 32394)	1	1.21e5	1.05e5	96405	1.28e5	13240	inactive
fd3F (retired record) + Crg-1	1	49030	57390	72530	79125	5655	inactive
toy (GeneID 43833)	1	1.74e5	1.79e5	2.51e5	2.72e5	14380	inactive
Remo (GeneID 2768909)	1	1.17e5	1.02e5	1.62e5	1.45e5	8120	inactive
CG18294 + 825-Oak + CG32214 + 2 more	1						inactive

Additional records follow:
gene	dsRNA no.	induced reporter light, run 1, well a	induced reporter light, run 1, well b	control promoter light, run 1, well a	control promoter light, run 1, well b	uninduced reporter light, run 1, well a	outcome
Uba2 (GeneID 44496)	1	2.61e5	2.19e5	3.23e5	2.39e5	10830	inactive
Alp10 (GeneID 38632)	1	1.89e5	2.21e5	3.20e5	2.30e5	10780	inactive
CG3703 (GeneID 31045)	1	1.23e5	1.00e5	1.87e5	2.22e5	8895	inactive
CG3703 (GeneID 31045)	2	1.18e5	1.14e5	2.11e5	1.71e5	10555	inactive
CG3703 (GeneID 31045)	3	85955	94285	1.74e5	2.04e5	7600	inactive
CG5339 (GeneID 37794)	1	2.26e5	2.41e5	1.72e5	2.15e5	16680	inactive
smo (GeneID 33196)	1	2.41e5	2.17e5	1.98e5	2.57e5	22878	inactive
CG2267 (GeneID 43639)	1	1.55e5	1.47e5	2.07e5	2.37e5	12445	inactive
CG11458 (GeneID 50110)	1	90560	71135	50035	51110	6888	inactive
CG14111 (GeneID 39497)	1	1.64e5	1.29e5	1.94e5	1.42e5	9010	inactive
CG10587 (GeneID 40318)	1	1.29e5	95915	1.07e5	85205	9550	inactive
CG11134 (GeneID 32334)	1	1.83e5	1.50e5	2.76e5	2.57e5	11455	inactive
peg (GeneID 50050)	1	1.95e5	1.56e5	1.97e5	1.98e5	13360	inactive
SmydA-7 (GeneID 36916)	1	92505	1.10e5	1.69e5	1.98e5	8515	inactive
Sgf29 (GeneID 37429)	1	2.31e5	1.61e5	1.77e5	1.83e5	16940	inactive
kumpel (GeneID 43136)	1	1.34e5	1.15e5	1.92e5	2.00e5	11035	inactive
kumpel (GeneID 43136)	2	1.72e5	1.67e5	1.69e5	1.85e5	13900	inactive
kumpel (GeneID 43136)	3	1.54e5	1.78e5	2.15e5	1.99e5	13100	inactive
kumpel (GeneID 43136)	4	1.62e5	1.69e5	1.69e5	1.73e5	13365	inactive
kumpel (GeneID 43136)	5	1.81e5	1.45e5	2.03e5	1.81e5	14895	inactive
kumpel (GeneID 43136)	6	1.46e5	1.51e5	2.18e5	2.02e5	12190	inactive
CG13361 (GeneID 31019)	1	1.10e5	1.07e5	2.30e5	1.93e5	8215	inactive
CG3880 (GeneID 37957)	1	1.81e5	1.56e5	1.33e5	1.79e5	12745	inactive
dome (GeneID 32976)	1	96410	93525	68840	44875	6460	inactive
CG43897 (GeneID 39153)	1	7650	6620	10535	8850	2745	inactive
CG43897 (GeneID 39153)	2	1.48e5	1.21e5	2.21e5	1.96e5	8490	inactive
CG43897 (GeneID 39153)	3						inactive
disp (GeneID 44274)	1	75845	82410	72470	53790	6655	inactive
Jon66Cii (GeneID 38953)	1	1.21e5	78660	81590	88695	5182	inactive
